# Library screening results

Results are given as percent effect. The record does not define 0% and 100%; most values in the screen are far below 50% and negative numbers occur (in some assays of this library far below -100). This is an unselected part of the compounds tested. Two or more numbers in one place are separate tests of the same structure; such repeats can differ widely.

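Viability assay of Plasmodium falciparum sporozoites; the read-out is not stated. The concentration is filed as 10 mM, unlikely as a test dose, so the dose is not known. Higher reads as lower viability (inferred: compounds with an IC50 in retests scored well above the rest). Strong results were mostly tested again. About 34,000 compounds were tested under these conditions; 0.84% (about 280) showed 50% or more at least once.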

For COc1ccc(CNCC2CCN(CCO)CC2)cc1F the result was -296.3%. Clc1cc(NCc2ncc[nH]2)nc2[nH]ccc12 gave -7.699%. NC(=O)C1CCCN1c1cc(N2CCc3ccccc3C2)ncn1 (centres undefined) read -24.3%. With Cc1cnn(C2CCCN(C(=O)c3ccnc(-n4cncn4)c3)C2)c1 (centres undefined) the screen gave 6.969%. With Cc1nc(CN2CCCC(CCc3ccccc3C(F)(F)F)C2)co1 (centres undefined) the screen gave -0.8919%. Cc1nnc(CN(C)CCOc2cccc(Cl)c2)o1 gave 5.006%. Result for CC(C)C(O)CNC(=O)Nc1cnn(C(C)C)c1 (centres undefined) was -16.3%.

For Cn1ccnc1CN1CCCN(C(=O)c2cccc(CC#N)c2)CC1 the result was 0.3798%. Result for COc1cc(N2CC[C@H](O)[C@@H]2Cc2ccccc2)ncn1 was -7.253%. For CCCc1nc(C)c(C(=O)NCCN2CCCCC2)s1 the result was 16.88%. Result for COc1c(CNCc2ccc(C(=O)N3CCCC3)cc2)c(C)nn1C.Cl was -2.633%. Result for CS(=O)(=O)N1CC(c2nc[nH]n2)c2cc(C(=O)NC3CC3)ccc21 (centres undefined) was -8.348%. CC(C)CNc1nc(C(=O)/N=c2\[nH]nc(C(C)(C)C)s2)cs1 gave 21.77% & -7.796% & 18.3%. For O=C(NCc1nncn1-c1ccccc1)C1CC(=O)N(CC2CC2)C1 (centres undefined) the result was 9.76%.

For Cc1nccc(C(=O)N2CCCN(Cc3cnn(C(C)C)c3)CC2)n1 the result was 1.804%. With CC(C)C(=O)N1CCC(n2nc(-c3ccco3)ccc2=O)CC1 the screen gave 13.15%. With CCCN1CCC(NCc2ccncc2)CC1 the screen gave 5.799%. Result for Cc1nc(-c2cncnc2C2CCCNC2)no1.Cl.Cl (centres undefined) was 10.58%. Cc1nc(Nc2nnc(C)s2)cc(C2CCCN2c2ccncn2)n1 (centres undefined) read 14.84%. Cc1ccc(CN(CCCN(C)C)Cc2cnc(C)n2C)o1.O=C(O)CC(O)(CC(=O)O)C(=O)O read 5.329%. For Cc1cc(C)n(Cc2cccc(C(=O)NCCN3CCOCC3)c2)n1 the result was -2.181%.

For Cc1ncsc1C(=O)N1CCC(Nc2cccnn2)CC1 the result was -7.561%. CNS(=O)(=O)c1ccc(C(=O)NCCc2ccccn2)cc1 gave -3.178%. COc1c(C2CCCN2CC(=O)Nc2cc(C)on2)c(C)nn1C (centres undefined) read 10.66%. With COCc1ccc(C(=O)N2CCC(c3cc4nccnc4[nH]3)CC2)cc1 the screen gave 5.703%. CN1CC(C(=O)NCc2ccnc(-n3cccn3)c2)CC1=O (centres undefined) read -0.7489%. Cc1ccc2c(n1)N(CCN(C)C)CCN(C(=O)c1cscn1)C2.O=C(O)C(F)(F)F.O=C(O)C(F)(F)F gave -5.642%. Cn1cc(C(=O)N2CCCC2CCc2ccccc2)cn1 (centres undefined) gave -9.371%.

CN(Cc1cccnc1)C1CC2(CCN(c3ncccn3)CC2)C1.O=C(O)C(F)(F)F.O=C(O)C(F)(F)F read 1.264%. CN(C)c1ccc(CN(CCCn2ccnc2)Cc2c[nH]cn2)cc1.O=C(O)CC(O)(CC(=O)O)C(=O)O read -22.39%. Result for Cc1cccc(=O)n1CCC(=O)N1CC[C@@](O)(C2CCC2)[C@H](C)C1 was 9.825%. With Cc1nc(CN2CCc3ncnc(-c4ccncc4)c3CC2)cs1.O=C(O)C(F)(F)F.O=C(O)C(F)(F)F the screen gave 17.17%. For COc1cccc(CNCc2c(C(C)C)nn(C)c2N(C)C)c1 the result was 12.73%. Result for CN(C)CCNc1ccc(-c2nc(COc3ccccc3)no2)cn1 was -12.88% & -55.86%. O=C(O)c1ccn(-c2ccccc2NS(=O)(=O)c2ccccc2)n1 gave 16.09%.

O=C(CCCN1C(=O)CCC1=O)NCC1(c2ccccc2)CCC1 gave -4.568%. Result for O=C(Nc1cc(-c2ccccn2)no1)C1CC1 was 19.37%. For COCCCC(=O)NS(=O)(=O)c1ccc2c(c1)OCCCO2 the result was 15.89%. CCN1CCOCC2(CCCN(C(=O)c3cccc(O)c3)C2)C1 (centres undefined) read 1.083%. COc1ccc(CNC(=O)c2nc3c(s2)CCN(C(C)=O)CC3)cc1 gave -7.302%. For CC(C)c1nc(CN2CCCC(Cn3cncn3)C2)cs1 (centres undefined) the result was -0.5795%. For CN1CCN(Cc2cccnc2)C(=O)C12CCN(C1CCOC1)CC2.O=C(O)C(F)(F)F.O=C(O)C(F)(F)F.O=C(O)C(F)(F)F (centres undefined) the result was -1.789%.

Cn1ccc(CN2CCC(CC(=O)N3CCCC3)CC2)cc1=O read 3.916%. Result for Cc1nn(C)c(N(C)C)c1CNC(C)COc1ccc(F)cc1F (centres undefined) was 1.262%. With O=C(O)C(F)(F)F.[H][C@]12CC[C@@]3(N=C(C)N(CC4CC4)C3=O)[C@@]1([H])CN(Cc1ccccc1)C2 the screen gave 2.527%. Result for CC(C)(O)CN1CCN(C(=O)c2cnn(-c3ccccc3F)c2)CC1 was -6.618%. Cc1csc(N2CCN(C(=O)Cc3ccsc3)CC2)n1 read 12%. COc1ccc(CCN2CCCC2Cn2nc(C)nc2C)cc1 (centres undefined) gave 5.345%. Result for O=C(c1ccco1)N1CCC2(CCOC2)C1 (centres undefined) was 1.535%.

The first 3 entries again:

| compound | percent effect |
|---|---|
| `COc1ccc(CNCC2CCN(CCO)CC2)cc1F` | -296.3% |
| `Clc1cc(NCc2ncc[nH]2)nc2[nH]ccc12` | -7.699% |
| `NC(=O)C1CCCN1c1cc(N2CCc3ccccc3C2)ncn1` (centres undefined) | -24.3% |

Data taken from ChEMBL document CHEMBL3988442, “University of Dundee, Small-Polar-MMV Screening Library” (2021).